# Data: the supplement of paper PMC10398353
# “And” between values parts separate entries of the source, which are not always exact repeats. Equal entries are not always repeated. Structures can show the parent of a compound that is named as a salt. The list shows a part of the results. Single values of this set are uncertain.
# System: Salmonella enterica serovar Typhimurium ST313 D23580
# Assay: normalized bacterial growth (OD600 20 h minus 0 h, interquartile-mean normalized) (fraction of plate interquartile mean); higher = more bacterial growth (less inhibition)
# Settings: LPM (pH 5.8, low phosphate, low Mg2+), concentration: 10 µM, temperature: 37 °C
row,Compound,normalized bacterial growth
1,O=c1oc2c(O)c(O)cc3c(=O)oc4c(O)c(O)cc1c4c23,0.915
2,NS(=O)(=O)c1cc2c(cc1Cl)NC(C1CC3C=CC1C3)NS2(=O)=O (stereo unspecified) [Cyclothiazide],1.16
3,O=C1NS(=O)(=O)c2ccccc21,1.24
4,CC(=O)CC(c1ccccc1)c1c(O)c2ccccc2oc1=O (stereo unspecified),1.01
5,S=C(S)N1CCCC1 [Ammonium pyrrolidinedithiocarbamate],1.11
6,CC[C@H](CO)Nc1nc(NCc2ccccc2)c2ncn(C(C)C)c2n1 [Roscovitine],1.04
7,OCCN(CCO)c1nc(N2CCCCC2)c2nc(N(CCO)CCO)nc(N3CCCCC3)c2n1 [Dipyridamole],1.23
8,O=C(O)c1ccccc1C(=O)Nc1ccc(S(=O)(=O)Nc2nccs2)cc1,0.816
9,C[N+](C)(C)CC(=O)O,1.13
10,C[N+](C)(C)CC(=O)O [Betaine hydrochloride],1.2
11,C[C@]12CC[C@@H]3c4ccc(OC(=O)c5ccccc5)cc4CC[C@H]3[C@@H]1CC[C@@H]2O,0.595
12,CN1CCN(C(c2ccccc2)c2ccccc2)CC1,0.852
13,CN1CCN(C(c2ccccc2)c2ccccc2)CC1 [Cyclizine hydrochloride],1.46
14,C(=C\c1ccccc1)/CN1CCN(C(c2ccccc2)c2ccccc2)CC1,0.927
15,NO [Hydroxylamine hydrochloride],1
16,Nc1nc(Cl)nc2c1ncn2[C@@H]1O[C@H](CO)[C@@H](O)[C@H]1O [2-Chloroadenosine],0.527
17,CC(=O)OCC(=O)[C@@]1(O)CCC2C3CCC4=CC(=O)C=C[C@]4(C)[C@@]3(F)[C@@H](O)C[C@@]21C (stereo partly specified),0.869
18,C[C@@H]1C[C@H]2[C@@H]3CCC4=CC(=O)C=C[C@]4(C)[C@@]3(F)[C@@H](O)C[C@]2(C)[C@@]1(O)C(=O)COP(=O)(O)O,1.17
19,CCN(CC)CCNC(C(=O)OCCC(C)C)c1ccccc1 (stereo unspecified),1.05
20,Nc1cc(Cl)c(NC2=NCCN2)c(Cl)c1 [p-Aminoclonidine hydrochloride],1.06
21,O=C(Cc1ccc(Cl)c(Cl)c1)OCCN1CCCC1 [AC 915 oxalate],1.14

row,Compound,normalized bacterial growth
1,N[C@@H](Cc1cc(I)c(Oc2ccc(O)c(I)c2)c(I)c1)C(=O)O [LIOTHYRONINE (L- isomer) SODIUM],0.465
2,N[C@@H](Cc1cc(I)c(Oc2ccc(O)c(I)c2)c(I)c1)C(=O)O,1.08
3,N[C@@H](Cc1cc(I)c(Oc2ccc(O)c(I)c2)c(I)c1)C(=O)O [Liothyronine],0.491
4,CN1CCC(=C2c3ccccc3Sc3ccccc32)CC1,0.977
5,Nc1c2ccccc2nc2ccccc12,0.816
6,Cc1ccc(=O)n(-c2ccccc2)c1 [Pirfenidone],1.07
7,COC1=CC(=O)C(C(=O)c2ccccc2)=CC1=O,1.03
8,CC(C)c1ccc2c(c1)CCC1[C@](C)(CN)CCC[C@]21C (stereo partly specified),1.17
9,C[C@H](CCC(=O)O)[C@H]1CC[C@H]2[C@@H]3[C@@H](O)C[C@@H]4C[C@H](O)CC[C@]4(C)[C@H]3CC[C@]12C [Urosiol],0.851
10,C[C@H](CCC(=O)O)[C@H]1CC[C@H]2[C@@H]3[C@@H](O)C[C@@H]4C[C@H](O)CC[C@]4(C)[C@H]3CC[C@]12C,0.799
11,C#C[C@]1(O)CC[C@H]2[C@@H]3CCC4=CCCC[C@@H]4[C@H]3CC[C@@]21C [Lynestrenol],0.789
12,Cc1cc(NC(=O)Nc2ccc3c(ccn3C)c2)sn1,1.03
13,O=C(CCCN1CCN(c2ccccn2)CC1)c1ccc(F)cc1,0.898
14,N[C@@H](CS(=O)O)C(=O)O [L-Cysteinesulfinic Acid],1.28
15,NC[C@@H]1O[C@@H](O[C@H]2[C@H](O)[C@@H](O[C@H]3O[C@H](CO)[C@@H](O)[C@H](N)[C@H]3O)[C@H](N)C[C@@H]2N)[C@@H](O)[C@H](O)[C@H]1O [Kanamycin A sulfate],0.95
16,NC[C@@H]1O[C@@H](O[C@H]2[C@H](O)[C@@H](O[C@H]3O[C@H](CO)[C@@H](O)[C@H](N)[C@H]3O)[C@H](N)C[C@@H]2N)[C@@H](O)[C@H](O)[C@H]1O,0.887
17,COC(=O)[C@H](NC(=O)c1cc(-c2ccccc2)nc2ccccc12)c1ccccc1,0.869
18,N#Cc1cc2nc(O)c(O)nc2cc1[N+](=O)[O-] [CNQX disodium],1.37
19,CN1CCc2cc(O)c(O)cc2C1Cc1ccc(O)c(O)c1 (stereo unspecified),1.05
20,C[C@@H](CN1CCC(Cc2ccccc2)CC1)[C@@H](O)c1ccc(O)cc1 [Ro 25-6981 hydrochloride],1.18
21,CC1CC(OC(=O)c2ccccc2O)CC(C)(C)C1 (stereo unspecified),1.46

# Given with tabs: entries from further up
row	Compound	normalized bacterial growth
1	N[C@@H](Cc1cc(I)c(Oc2ccc(O)c(I)c2)c(I)c1)C(=O)O [LIOTHYRONINE (L- isomer) SODIUM]	0.465
12	Cc1cc(NC(=O)Nc2ccc3c(ccn3C)c2)sn1	1.03

# More results:

row,Compound,normalized bacterial growth
1,"Nc1c2c(nc3ccccc13)CCCC2 [""9-Amino-1,2,3,4-tetrahydroacridine hydrochloride""]",1.14
2,O=c1cc(-c2ccccc2)oc2cc(O)cc(O)c12,1.46
3,C=C[C@@]1(C)CC(=O)[C@]2(O)[C@@]3(C)[C@@H](O)CCC(C)(C)[C@@H]3[C@H](O)[C@H](OC(C)=O)[C@@]2(C)O1 [Forskolin],0.733
4,C=C[C@@]1(C)CC(=O)[C@]2(O)[C@@]3(C)[C@@H](O)CCC(C)(C)[C@@H]3[C@H](O)[C@H](OC(C)=O)[C@@]2(C)O1,1.14 and 0.947
5,CN(Cc1cnc2nc(N)nc(N)c2n1)c1ccc(C(=O)NC(CCC(=O)O)C(=O)O)cc1 (racemic),1.07
6,C/C(=C(\CCOP(=O)(O)O)SC(=O)c1ccccc1)N(C=O)Cc1cnc(C)nc1N [Benfotiamine],1.18
7,CC1(C)O[C@@H]2C[C@H]3[C@@H]4CCC5=CC(=O)C=C[C@]5(C)[C@H]4[C@@H](O)C[C@]3(C)[C@]2(C(=O)CO)O1,1.02
8,"c1ccc(-c2ccccn2)nc1 [""2,2'-Bipyridyl""]",1.29
9,COc1ccccc1N1CCN(CCN(C(=O)c2ccc(F)cc2)c2ccccn2)CC1 [p-MPPF dihydrochloride],0.792
10,O=C(O)Cc1cc(I)c(Oc2cc(I)c(O)c(I)c2)c(I)c1,0.913
11,CCN(CC)CCOc1ccc2c(c1)C(=O)c1cc(OCCN(CC)CC)ccc1-2,0.796
12,Oc1ccc(Cn2cc[nH]c2=S)cc1 [1-(4-Hydroxybenzyl)imidazole-2-thiol],0.99
13,NC[C@H]1O[C@H](O[C@H]2[C@H](O)[C@@H](O[C@H]3O[C@H](CO)[C@@H](O)[C@H](N)[C@H]3O)[C@H](N)C[C@@H]2N)[C@H](O)[C@@H](O)[C@@H]1O,1.08
14,CC[C@H]1OC(=O)C[C@@H](O)[C@H](C)[C@@H](O[C@@H]2O[C@H](C)[C@@H](O[C@H]3C[C@@](C)(O)[C@@H](O)[C@H](C)O3)[C@H](N(C)C)[C@H]2O)[C@@H](CC=O)C[C@@H](C)C(=O)/C=C/C(C)=C/[C@@H]1CO[C@@H]1O[C@H](C)[C@@H](O)[C@@H](OC)[C@H]1OC,0.923
15,O=C(/C=C/c1ccc(O)c(O)c1)c1ccc(O)cc1O,1.04
16,COc1ccc2c(=O)c(-c3ccc(O)cc3)coc2c1,0.968
17,CNS(=O)(=O)c1ccc(NC(=O)c2ccccc2C(=O)O)cc1,1
18,Cc1cc(C)c(NC(=O)C[C@H](CC(=O)O)c2cccc3ccccc23)c(C(=O)N2CCC3(CCCC3)CC2)c1,0.718
19,COC(=O)CC1C(C)(C)C(OC(C)=O)[C@@H]2[C@@H](OC(C)=O)[C@]34O[C@@]2(O)[C@]1(C)C3CC[C@]1(C)C4=CC(=O)O[C@H]1c1ccoc1 (stereo partly specified),0.814
20,CC1(C)S[C@@H]2[C@H](NC(=O)[C@H](C(=O)O)c3ccsc3)C(=O)N2[C@H]1C(=O)O,1.07
21,CC(C)CN(C)c1nc(N)c(C(=O)N=C(N)N)nc1Cl [5-(N-Methyl-N-isobutyl)amiloride],1.06

row,Compound,normalized bacterial growth
1,CN[C@@H]1[C@@H](O)[C@@H](O[C@@H]2[C@@H](O)[C@H](O[C@H]3OC(CN)=CC[C@H]3N)[C@@H](N)C[C@H]2N)OC[C@]1(C)O [Sisomicin sulfate],1.12
2,CN[C@@H]1[C@@H](O)[C@@H](O[C@@H]2[C@@H](O)[C@H](O[C@H]3OC(CN)=CC[C@H]3N)[C@@H](N)C[C@H]2N)OC[C@]1(C)O,1.24
3,Cc1cc(NS(=O)(=O)c2ccc(N)cc2)no1,1
4,O=C(c1ccc2c(c1)OCCO2)N1CCCCC1,0.818
5,C=C[C@@H](C1=CC(=O)C(OC)=C(OC)C1=O)c1ccccc1,1.09
6,O=C1CN(/N=C/c2ccc(-c3ccc([N+](=O)[O-])cc3)o2)C(=O)N1,1.04
7,O=C1CN(/N=C/c2ccc(-c3ccc([N+](=O)[O-])cc3)o2)C(=O)N1 [Dantrolene sodium salt],0.984
8,O=C1CN(/N=C/c2ccc(-c3ccc([N+](=O)[O-])cc3)o2)C(=O)N1 [Dantrolene sodium],0.847
9,COc1cc(O)c2c(c1)C(=O)c1cc(C)cc(O)c1C2=O,0.97
10,CC(C)[C@H]1c2ccc(F)cc2CC[C@@]1(CCN(C)CCCc1nc2ccccc2[nH]1)OC(=O)C1CC1,1.46
11,CCOC(=O)n1ccn(C)c1=S,0.987
12,C[C@H](N)[C@H](O)c1cccc(O)c1,1.27
13,C[C@H](N)[C@H](O)c1cccc(O)c1 [Metaraminol bitartrate],1.02
14,COc1cc2c3cc1Oc1c(OC)c(OC)cc4c1[C@@H](Cc1ccc(OC(=O)c5ccc([N+](=O)[O-])cc5)c(c1)Oc1ccc(cc1)C[C@@H]3N(C)CC2)N(C)CC4,0.889
15,OC1c2ccccc2N=C2CCCN21 (stereo unspecified),1.01
16,CCN(CC)CCOC(=O)C(Cc1cccc2ccccc12)CC1CCCO1 (stereo unspecified),0.918
17,CC1(C)S[C@@H]2[C@H](NC(=O)C(C(=O)O)c3ccccc3)C(=O)N2[C@H]1C(=O)O (stereo partly specified),1.09
18,Cc1nc2sccn2c(=O)c1CCN1CCC(=C(c2ccccc2)c2ccc(F)cc2)CC1 [Diacylglycerol kinase inhibitor I],0.796

# Six entries drawn at random from those above, as already listed:
row,Compound,normalized bacterial growth
5,C=C[C@@H](C1=CC(=O)C(OC)=C(OC)C1=O)c1ccccc1,1.09
9,COc1cc(O)c2c(c1)C(=O)c1cc(C)cc(O)c1C2=O,0.97
8,O=C1CN(/N=C/c2ccc(-c3ccc([N+](=O)[O-])cc3)o2)C(=O)N1 [Dantrolene sodium],0.847
3,Cc1cc(NS(=O)(=O)c2ccc(N)cc2)no1,1
13,C[C@H](N)[C@H](O)c1cccc(O)c1 [Metaraminol bitartrate],1.02
11,CCOC(=O)n1ccn(C)c1=S,0.987
